The target of experiment [1] is human tau P301L (4R2N) expressed in hTau.P301L-Tg mice (human) (UniProt P10636). Put plainly: Western blot. A general note: A western blot detects proteins with antibodies after separation by electrophoresis.
The target is the same in experiment [2]. Put plainly: Western blot; P301L tau mouse brain cortex lysates.
Experiment [3] deals with full-length phospho-tau (UniProt P10636). Put plainly: capture ELISA: antibody coated on the well, full-length phospho-tau titrated 0-100 ng/ml, detected with biotin-labelled non-competitive anti-tau antibodies (BT2 + HT7) and streptavidin-HRP, raw OD. For orientation: In an ELISA, binding on a coated surface is turned into a signal by an enzyme label.
For experiment [4] the target is unchanged. Put plainly: capture ELISA, coated antibody, detection with biotin-BT2 + biotin-HT7.
Experiment [5] has as its target human tau P301L (4R2N) expressed in hTau.P301L-Tg mice (human) (UniProt P10636). Put plainly: Western blot of interstitial fluid.

Amino acid sequences for entries named in this document (tags omitted). A change or cut given only in a name is not applied to a line headed by its entry. Chains listed by the source or under a name are the forms on record and can include a tag or linker.
UniProt P10636: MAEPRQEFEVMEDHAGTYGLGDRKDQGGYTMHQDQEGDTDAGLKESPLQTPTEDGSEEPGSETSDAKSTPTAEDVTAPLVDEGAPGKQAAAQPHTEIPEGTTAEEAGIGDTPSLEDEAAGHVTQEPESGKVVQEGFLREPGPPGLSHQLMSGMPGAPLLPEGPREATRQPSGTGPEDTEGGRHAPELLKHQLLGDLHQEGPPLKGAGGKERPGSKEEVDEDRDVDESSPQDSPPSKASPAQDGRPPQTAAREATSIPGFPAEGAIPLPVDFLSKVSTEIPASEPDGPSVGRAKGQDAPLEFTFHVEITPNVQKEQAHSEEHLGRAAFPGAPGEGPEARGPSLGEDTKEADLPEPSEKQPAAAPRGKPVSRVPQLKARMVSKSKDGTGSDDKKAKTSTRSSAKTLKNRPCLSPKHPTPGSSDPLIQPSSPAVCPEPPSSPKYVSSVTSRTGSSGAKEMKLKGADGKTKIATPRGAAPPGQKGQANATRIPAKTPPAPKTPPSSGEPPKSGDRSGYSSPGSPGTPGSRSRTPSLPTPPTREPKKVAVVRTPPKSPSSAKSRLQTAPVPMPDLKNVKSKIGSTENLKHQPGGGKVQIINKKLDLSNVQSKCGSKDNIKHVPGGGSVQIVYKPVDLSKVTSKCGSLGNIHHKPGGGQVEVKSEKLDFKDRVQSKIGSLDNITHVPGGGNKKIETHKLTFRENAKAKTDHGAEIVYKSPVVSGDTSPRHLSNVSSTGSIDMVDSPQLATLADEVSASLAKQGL
human tau P301L (4R2N) expressed in hTau.P301L-Tg mice (P10636, form named): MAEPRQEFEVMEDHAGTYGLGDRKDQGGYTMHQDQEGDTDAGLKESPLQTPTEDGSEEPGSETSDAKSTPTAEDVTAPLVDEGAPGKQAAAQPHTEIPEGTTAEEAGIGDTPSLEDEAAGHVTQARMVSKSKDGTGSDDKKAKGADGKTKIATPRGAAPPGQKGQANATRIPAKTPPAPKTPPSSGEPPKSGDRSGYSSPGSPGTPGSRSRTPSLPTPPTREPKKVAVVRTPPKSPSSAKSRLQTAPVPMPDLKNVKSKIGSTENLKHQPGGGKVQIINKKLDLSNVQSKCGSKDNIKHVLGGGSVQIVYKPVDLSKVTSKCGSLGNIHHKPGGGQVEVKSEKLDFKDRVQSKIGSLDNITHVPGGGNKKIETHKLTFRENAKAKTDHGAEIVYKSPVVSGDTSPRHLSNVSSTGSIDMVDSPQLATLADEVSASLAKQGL

Results are given in words; binding and its absence hold for the method and conditions named. Some binding calls cover weakened binding; strength is not graded here.

B1: humanized IPN002 variant VH2/Vk1 (antibody, V domains shown)
VH: EVHLVESGGALVKPGGSLRLSCAASGFSFSKYGMSWVRQAPGKGLEWVATISSSGSRTYYPDSVKGRFTISRDNAKNTLYLQMNSLRAEDTAMYYCSISWDGAMDYWGQGTTVTVSS
VL: DVLMTQSPLSLPVTLGQPASISCKSSQSIVHSNGNTYLEWYLQKPGQSPQLLVYKVSNRFSGVPDRFSGSGSGTDFTLKISRVEAEDVGTYYCFQGSLVPWAFGGGTKVEIK
Turning to B1, the binding result in experiment [1] and in experiment [2] was “binds” each time.

B2: humanized IPN002 variant VH2/Vk3 (antibody, V domains shown)
VH: EVHLVESGGALVKPGGSLRLSCAASGFSFSKYGMSWVRQAPGKGLEWVATISSSGSRTYYPDSVKGRFTISRDNAKNTLYLQMNSLRAEDTAMYYCSISWDGAMDYWGQGTTVTVSS
VL: DVVMTQSPLSLPVTLGQPASISCKSSQSIVHSNGNTYLEWYLQKPGQSPQLLVYKVSNRFSGVPDRFSGSGSGTDFTLKISRVEAEDVGVYYCFQGSLVPWAFGGGTKVEIK
As to B2, the binding entry in experiment [1] and in experiment [2] was “binds” throughout.

B3: humanized IPN002 variant VH2/Vk2 (antibody, V domains shown)
VH: EVHLVESGGALVKPGGSLRLSCAASGFSFSKYGMSWVRQAPGKGLEWVATISSSGSRTYYPDSVKGRFTISRDNAKNTLYLQMNSLRAEDTAMYYCSISWDGAMDYWGQGTTVTVSS
VL: DVVMTQSPLSLPVTLGQPASISCKSSQSIVHSNGNTYLEWYLQKPGQSPQLLVYKVSNRFSGVPDRFSGSGSGTDFTLKISRVEAEDVGTYYCFQGSLVPWAFGGGTKVEIK
Turning to B3, the binding entry in experiment [1] and in experiment [2] was “binds” throughout.

B4: IPN002 (antibody, V domains shown)
VH: EVHLVESGGALVKPGGSLKLSCAASGFSFSKYGMSWVRQTPDKRLEWVATISSSGSRTYYPDSVKGQFTISRDNAKNTLYLQMSSLKSEDTAMYYCSISWDGAMDYWGQGTSVTVSS
VL: DVLMTQTPLSLPVSLGDQASISCKSSQSIVHSNGNTYLEWYLQKPGQSPKLLVYKVSNRFSGVPDRFSGSGSGTDFTLKISRVEAEDLGTYYCFQGSLVPWAFGGGTKLEIK
For the molecule B4, the binding entry with full-length phospho-tau [3] and with full-length phospho-tau [4] was “binds” each time.

B5: IPN001 (antibody, V domains shown)
VH: EVQLVESGEDLVKPGGSLKLSCVASGFAFSSYGMSWVRQTPDMRLEWVATISSSGSRTYFPDSVKGRLTISRDNDKNILYLQMSSLRSEDTAMYYCTITWDGAMDYWGRGISVTVSS
VL: DVLMTQTPLSLAVNLGDQASLSCRSSQTILHSNGNTYLEWYLQKPGQSPRLLIYKVSKRFSGVPDRFSGSGSGTDFTLKISRVEADDLGIYYCFQGSLVPWAFGGGTKLEIK
Take B5: in experiment [5], the binding entry is given as “binds”.

The record behind these values is patent US20160122421A1.
